Measured values published in patent publication US5482954A, “Signal transduction inhibitor triazole and diazole compounds” (priority 1994, dated 1996).
Some of these results come from one statement about several compounds together.

Test system: signal transduction and tumor growth
Test: Biological and biochemical assays, summary
Format: cell-based
Conditions: summary of all assays
Excerpt: Compound 1 was inhibitory for the biological and biochemical assays.

O=C(c1ccccc1)c1ccccc1 [Compound 17]
inhibition in the biological and biochemical assays: failed to provide any significant inhibition in any of the test assays
